Laboratory results from the supplement of paper PMC10849652.
The list shows a part of the results.

The chains behind the UniProt entries cited, without tags or fusion partners. Where a name states a change or a piece, a line headed by the entry shows the natural chain unless it says otherwise.
UniProt Q9BUP3: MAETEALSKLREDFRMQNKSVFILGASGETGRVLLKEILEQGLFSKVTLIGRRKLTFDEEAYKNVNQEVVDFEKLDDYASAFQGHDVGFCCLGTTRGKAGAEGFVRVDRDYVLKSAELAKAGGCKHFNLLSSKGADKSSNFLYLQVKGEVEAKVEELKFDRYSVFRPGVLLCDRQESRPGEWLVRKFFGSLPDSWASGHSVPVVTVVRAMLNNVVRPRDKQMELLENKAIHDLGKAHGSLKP
UniProt Q9NX55: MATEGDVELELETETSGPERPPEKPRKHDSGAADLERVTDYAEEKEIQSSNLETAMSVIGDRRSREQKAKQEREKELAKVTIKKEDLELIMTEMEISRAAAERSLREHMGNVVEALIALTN
UniProt Q9BT40: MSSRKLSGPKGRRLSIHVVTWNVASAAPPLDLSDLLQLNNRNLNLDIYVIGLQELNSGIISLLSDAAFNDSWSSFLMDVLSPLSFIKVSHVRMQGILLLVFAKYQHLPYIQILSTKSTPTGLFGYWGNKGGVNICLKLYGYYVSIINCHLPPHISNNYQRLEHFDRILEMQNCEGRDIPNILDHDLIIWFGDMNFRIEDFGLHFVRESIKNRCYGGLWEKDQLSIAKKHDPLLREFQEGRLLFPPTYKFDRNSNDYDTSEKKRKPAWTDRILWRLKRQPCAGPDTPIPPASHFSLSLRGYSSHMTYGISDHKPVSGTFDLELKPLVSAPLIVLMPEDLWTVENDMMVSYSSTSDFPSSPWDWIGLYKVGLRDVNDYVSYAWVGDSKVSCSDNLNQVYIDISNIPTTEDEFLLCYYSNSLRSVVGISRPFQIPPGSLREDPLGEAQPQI
UniProt Q9H0C8: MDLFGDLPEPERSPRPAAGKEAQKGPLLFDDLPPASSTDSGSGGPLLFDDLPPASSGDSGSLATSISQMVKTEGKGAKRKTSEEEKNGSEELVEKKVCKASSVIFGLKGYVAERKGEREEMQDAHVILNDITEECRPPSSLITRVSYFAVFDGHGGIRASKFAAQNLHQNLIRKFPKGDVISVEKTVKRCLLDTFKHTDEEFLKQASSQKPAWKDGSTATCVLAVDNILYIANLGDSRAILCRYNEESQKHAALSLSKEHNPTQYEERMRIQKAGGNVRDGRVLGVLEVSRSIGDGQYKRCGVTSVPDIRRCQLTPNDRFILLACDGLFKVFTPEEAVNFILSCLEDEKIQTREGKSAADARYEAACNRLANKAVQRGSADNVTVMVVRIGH
UniProt Q5TA45, whole entry, looked up: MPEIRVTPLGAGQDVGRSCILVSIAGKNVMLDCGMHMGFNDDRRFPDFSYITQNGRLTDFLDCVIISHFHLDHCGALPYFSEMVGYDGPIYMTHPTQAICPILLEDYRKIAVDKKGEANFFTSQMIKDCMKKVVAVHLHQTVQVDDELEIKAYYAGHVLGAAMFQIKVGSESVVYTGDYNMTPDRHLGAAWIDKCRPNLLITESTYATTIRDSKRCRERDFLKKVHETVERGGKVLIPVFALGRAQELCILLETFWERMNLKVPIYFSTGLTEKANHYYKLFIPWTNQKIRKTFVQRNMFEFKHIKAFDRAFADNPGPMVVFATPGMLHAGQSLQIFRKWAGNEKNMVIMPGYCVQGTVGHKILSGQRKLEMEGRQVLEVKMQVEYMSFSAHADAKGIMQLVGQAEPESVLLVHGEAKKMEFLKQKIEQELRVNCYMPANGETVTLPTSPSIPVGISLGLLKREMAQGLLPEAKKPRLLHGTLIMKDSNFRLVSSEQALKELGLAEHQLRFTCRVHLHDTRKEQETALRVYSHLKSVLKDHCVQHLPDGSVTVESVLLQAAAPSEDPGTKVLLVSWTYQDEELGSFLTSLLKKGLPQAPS
UniProt Q13478: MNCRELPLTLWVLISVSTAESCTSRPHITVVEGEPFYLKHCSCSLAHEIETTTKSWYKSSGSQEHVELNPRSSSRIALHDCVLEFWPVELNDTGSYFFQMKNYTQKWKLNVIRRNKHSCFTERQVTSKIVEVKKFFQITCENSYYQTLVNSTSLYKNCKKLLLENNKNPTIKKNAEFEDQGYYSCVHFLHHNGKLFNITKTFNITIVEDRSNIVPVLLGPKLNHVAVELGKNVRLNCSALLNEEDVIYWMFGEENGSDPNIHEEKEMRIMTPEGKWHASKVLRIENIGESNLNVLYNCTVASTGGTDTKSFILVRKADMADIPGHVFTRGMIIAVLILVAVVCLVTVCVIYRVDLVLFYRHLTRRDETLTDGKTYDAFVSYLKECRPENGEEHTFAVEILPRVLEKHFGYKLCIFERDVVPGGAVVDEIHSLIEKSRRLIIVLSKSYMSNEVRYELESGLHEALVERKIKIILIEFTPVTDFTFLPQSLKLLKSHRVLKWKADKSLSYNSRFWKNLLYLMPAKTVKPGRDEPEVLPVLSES
UniProt Q96T52: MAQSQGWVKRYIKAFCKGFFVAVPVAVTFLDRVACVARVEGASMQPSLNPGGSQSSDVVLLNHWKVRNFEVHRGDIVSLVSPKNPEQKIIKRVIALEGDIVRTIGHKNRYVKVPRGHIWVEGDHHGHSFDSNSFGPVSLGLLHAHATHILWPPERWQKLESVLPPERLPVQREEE
UniProt A1L0T0: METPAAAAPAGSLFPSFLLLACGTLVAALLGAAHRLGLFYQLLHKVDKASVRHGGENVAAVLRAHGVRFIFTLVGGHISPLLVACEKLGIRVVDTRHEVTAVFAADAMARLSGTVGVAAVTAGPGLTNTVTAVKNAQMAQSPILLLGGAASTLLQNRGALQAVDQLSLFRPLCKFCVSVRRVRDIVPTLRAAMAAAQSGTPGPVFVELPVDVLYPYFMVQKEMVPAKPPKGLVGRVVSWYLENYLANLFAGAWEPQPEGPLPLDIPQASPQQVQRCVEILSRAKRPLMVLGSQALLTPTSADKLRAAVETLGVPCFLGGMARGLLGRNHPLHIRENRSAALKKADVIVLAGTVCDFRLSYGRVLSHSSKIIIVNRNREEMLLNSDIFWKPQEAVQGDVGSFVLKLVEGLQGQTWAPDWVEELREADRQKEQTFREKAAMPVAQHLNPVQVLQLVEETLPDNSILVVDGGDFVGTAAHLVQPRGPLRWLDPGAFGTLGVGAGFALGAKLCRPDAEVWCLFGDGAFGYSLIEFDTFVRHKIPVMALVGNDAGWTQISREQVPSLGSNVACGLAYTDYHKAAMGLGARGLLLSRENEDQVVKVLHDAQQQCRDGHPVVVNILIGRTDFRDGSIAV
UniProt P61604, whole entry, looked up: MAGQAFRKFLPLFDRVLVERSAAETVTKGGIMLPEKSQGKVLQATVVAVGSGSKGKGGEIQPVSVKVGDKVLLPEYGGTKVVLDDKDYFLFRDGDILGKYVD
UniProt Q13123, whole entry, looked up: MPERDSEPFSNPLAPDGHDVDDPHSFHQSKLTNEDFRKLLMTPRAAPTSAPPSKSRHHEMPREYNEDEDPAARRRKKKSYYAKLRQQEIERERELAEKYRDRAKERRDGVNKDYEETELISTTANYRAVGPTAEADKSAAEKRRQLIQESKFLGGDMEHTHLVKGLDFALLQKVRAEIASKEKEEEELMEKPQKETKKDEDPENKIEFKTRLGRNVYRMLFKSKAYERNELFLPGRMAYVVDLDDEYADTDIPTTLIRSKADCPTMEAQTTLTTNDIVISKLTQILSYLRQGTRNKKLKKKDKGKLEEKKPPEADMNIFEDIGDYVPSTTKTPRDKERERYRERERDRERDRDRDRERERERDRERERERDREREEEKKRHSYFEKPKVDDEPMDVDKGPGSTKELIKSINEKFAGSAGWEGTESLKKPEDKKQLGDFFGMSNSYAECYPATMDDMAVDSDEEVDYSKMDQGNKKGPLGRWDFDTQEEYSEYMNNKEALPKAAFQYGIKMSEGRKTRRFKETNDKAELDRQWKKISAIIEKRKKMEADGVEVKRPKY
UniProt Q96CB8, whole entry, looked up: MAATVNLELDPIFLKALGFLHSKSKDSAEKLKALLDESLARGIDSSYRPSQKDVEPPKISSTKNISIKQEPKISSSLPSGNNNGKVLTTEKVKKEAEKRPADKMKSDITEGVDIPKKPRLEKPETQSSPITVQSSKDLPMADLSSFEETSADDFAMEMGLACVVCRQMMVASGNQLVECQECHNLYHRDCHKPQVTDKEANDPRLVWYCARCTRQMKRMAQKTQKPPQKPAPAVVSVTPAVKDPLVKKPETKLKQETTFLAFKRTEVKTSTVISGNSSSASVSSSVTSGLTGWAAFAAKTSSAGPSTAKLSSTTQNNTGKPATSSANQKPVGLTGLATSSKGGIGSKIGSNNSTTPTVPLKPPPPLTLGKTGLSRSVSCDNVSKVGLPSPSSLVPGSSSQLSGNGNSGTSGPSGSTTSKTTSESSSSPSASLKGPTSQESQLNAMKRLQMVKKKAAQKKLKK
UniProt Q9NZL4: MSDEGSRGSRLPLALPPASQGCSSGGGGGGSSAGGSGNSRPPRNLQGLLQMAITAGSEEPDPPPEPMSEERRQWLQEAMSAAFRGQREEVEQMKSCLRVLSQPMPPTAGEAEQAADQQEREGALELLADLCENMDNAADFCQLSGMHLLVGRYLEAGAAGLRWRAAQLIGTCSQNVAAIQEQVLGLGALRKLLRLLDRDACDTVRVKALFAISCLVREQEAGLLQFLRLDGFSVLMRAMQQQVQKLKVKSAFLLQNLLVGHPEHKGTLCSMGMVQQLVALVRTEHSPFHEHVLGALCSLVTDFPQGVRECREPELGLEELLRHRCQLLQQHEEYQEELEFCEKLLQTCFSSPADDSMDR
UniProt Q92598: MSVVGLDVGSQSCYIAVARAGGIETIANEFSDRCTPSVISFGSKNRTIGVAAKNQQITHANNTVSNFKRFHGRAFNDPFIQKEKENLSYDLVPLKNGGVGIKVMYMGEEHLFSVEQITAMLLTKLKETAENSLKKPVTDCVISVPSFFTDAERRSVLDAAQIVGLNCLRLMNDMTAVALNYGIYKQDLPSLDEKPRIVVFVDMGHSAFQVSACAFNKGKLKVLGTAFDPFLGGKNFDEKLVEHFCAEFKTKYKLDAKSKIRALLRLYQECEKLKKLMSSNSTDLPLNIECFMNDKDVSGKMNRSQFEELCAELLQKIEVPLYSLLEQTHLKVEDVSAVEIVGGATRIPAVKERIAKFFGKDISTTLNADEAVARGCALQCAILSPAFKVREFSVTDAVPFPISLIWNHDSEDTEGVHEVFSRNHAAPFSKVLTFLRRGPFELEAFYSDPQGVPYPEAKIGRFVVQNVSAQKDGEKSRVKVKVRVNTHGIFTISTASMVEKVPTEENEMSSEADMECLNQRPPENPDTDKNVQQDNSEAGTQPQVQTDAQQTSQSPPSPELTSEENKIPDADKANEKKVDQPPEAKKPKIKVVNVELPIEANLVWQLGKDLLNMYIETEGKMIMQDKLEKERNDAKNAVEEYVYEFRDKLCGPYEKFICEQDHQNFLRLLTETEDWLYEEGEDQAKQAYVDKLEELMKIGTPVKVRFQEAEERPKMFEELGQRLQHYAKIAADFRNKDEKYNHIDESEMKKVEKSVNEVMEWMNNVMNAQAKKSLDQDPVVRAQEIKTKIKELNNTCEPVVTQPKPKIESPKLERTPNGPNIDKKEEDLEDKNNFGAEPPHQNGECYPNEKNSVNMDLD
UniProt Q70UQ0: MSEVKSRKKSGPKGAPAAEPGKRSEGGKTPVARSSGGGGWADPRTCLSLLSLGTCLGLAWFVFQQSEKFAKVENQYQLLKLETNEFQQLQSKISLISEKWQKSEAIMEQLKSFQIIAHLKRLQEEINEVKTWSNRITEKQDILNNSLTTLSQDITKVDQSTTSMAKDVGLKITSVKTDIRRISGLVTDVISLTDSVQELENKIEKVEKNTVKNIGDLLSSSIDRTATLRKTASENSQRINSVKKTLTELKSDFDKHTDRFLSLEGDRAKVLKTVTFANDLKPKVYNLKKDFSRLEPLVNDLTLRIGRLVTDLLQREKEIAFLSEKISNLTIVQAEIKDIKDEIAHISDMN
UniProt P05362: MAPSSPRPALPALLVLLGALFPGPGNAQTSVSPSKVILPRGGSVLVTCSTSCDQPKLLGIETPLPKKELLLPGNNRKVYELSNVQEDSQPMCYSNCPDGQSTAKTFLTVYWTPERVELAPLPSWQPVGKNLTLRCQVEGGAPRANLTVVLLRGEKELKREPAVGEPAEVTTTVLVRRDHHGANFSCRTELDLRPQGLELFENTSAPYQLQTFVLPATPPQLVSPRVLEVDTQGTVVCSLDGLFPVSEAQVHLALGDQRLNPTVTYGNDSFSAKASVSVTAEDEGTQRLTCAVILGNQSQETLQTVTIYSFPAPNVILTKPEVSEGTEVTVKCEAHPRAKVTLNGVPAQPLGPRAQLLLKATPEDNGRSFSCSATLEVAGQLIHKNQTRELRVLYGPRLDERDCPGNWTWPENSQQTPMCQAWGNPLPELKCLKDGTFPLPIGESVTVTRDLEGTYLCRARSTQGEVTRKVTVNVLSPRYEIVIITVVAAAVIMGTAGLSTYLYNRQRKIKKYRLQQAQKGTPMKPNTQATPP

Assays:
Assay in all cases: log2 fold change, soluble protein after heating vs DMSO (PISA); higher = thermal stabilisation; K562 lysate, 10 uM; active = over 0.2 and 3.5 SD of the protein, either way, in both replicates (recomputed)
alvocidib = compound: CN1CC[C@H](c2c(O)cc(O)c3c(=O)cc(-c4ccccc4Cl)oc23)[C@H](O)C1 [alvocidib]
Procedure, shortened: (§1)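 Quantification was by TMTpro 16plex LC-MS/MS with equalised channel sums, applied to the supernatant after 21,000xg for 90 min. Samples were crude K562 extract at 1 mg/mL protein in PBS pH 7.4 with 1 mM MgCl2, treated with 10 μM compound for 30 min, heated for 3 min across 48°C-58°C, pooled and brought to 0.5% NP-40 at 4°C. Values are log-two fold changes in thermal stability relative to solvent controls, from duplicates.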

Tubastatin A = compound: CN1CCc2c(c3ccccc3n2Cc2ccc(C(=O)NO)cc2)C1 [Tubastatin A]
Procedure, shortened: as §1

[1] = compound: CNC(=O)C1=CC=CC=C1NC2=NC(=NC=C2Cl)NC3=C(C=C(C=C3)N4CCOCC4)OC
Procedure, shortened: as §1

defactinib = compound: CNC(=O)c1ccc(Nc2ncc(C(F)(F)F)c(NCc3nccnc3N(C)S(C)(=O)=O)n2)cc1 [defactinib]
Procedure, shortened: as §1

[2] = compound: CNc1nc(-c2ccc3c(N)n[nH]c3c2)cc(N2C[C@@H](C(=O)NC3CCCCC3)CC[C@H]2C)n1
Procedure, shortened: as §1

encorafenib = compound: COC(=O)N[C@@H](C)CNc1nccc(-c2cn(C(C)C)nc2-c2cc(Cl)cc(NS(C)(=O)=O)c2F)n1 [encorafenib]
Procedure, shortened: as §1

[3] = compound: COC(=O)[C@H](CCSC)NC(=O)C1=C(C=C(C=C1)NC[C@H](CS)N)C2=CC=CC=C2
Procedure, shortened: as §1

alisertib = compound: COc1cc(Nc2ncc3c(n2)-c2ccc(Cl)cc2C(c2c(F)cccc2OC)=NC3)ccc1C(=O)O [alisertib]
Procedure, shortened: as §1

[4] = compound: COc1cc2nc(-c3cc(F)ccc3O)nc(N[C@@H]3CNC[C@H]3C(C)(C)O)c2cc1OC
Procedure, shortened: as §1

gefitinib = compound: COc1cc2ncnc(Nc3ccc(F)c(Cl)c3)c2cc1OCCCN1CCOCC1 [gefitinib]
Procedure, shortened: as §1

lapatinib = compound: CS(=O)(=O)CCNCc1ccc(-c2ccc3ncnc(Nc4ccc(OCc5cccc(F)c5)c(Cl)c4)c3c2)o1 [lapatinib]
Procedure, shortened: as §1

pictilisib = compound: CS(=O)(=O)N1CCN(Cc2cc3nc(-c4cccc5[nH]ncc45)nc(N4CCOCC4)c3s2)CC1 [pictilisib]
Procedure, shortened: as §1

crizotinib = compound: C[C@@H](Oc1cc(-c2cnn(C3CCNCC3)c2)cnc1N)c1c(Cl)ccc(F)c1Cl [crizotinib]
Procedure, shortened: as §1

[5] = compound: C[C@H](C1=CC=C(C=C1)C(=O)NC2=C3C=CNC3=NC=C2)N
Procedure, shortened: as §1

duvelisib = compound: C[C@H](Nc1ncnc2nc[nH]c12)c1cc2cccc(Cl)c2c(=O)n1-c1ccccc1 [duvelisib]
Procedure, shortened: as §1

gandotinib = compound: Cc1cc(Nc2cc(CN3CCOCC3)c3nc(C)c(Cc4ccc(Cl)cc4F)n3n2)n[nH]1 [gandotinib]
Procedure, shortened: as §1

tozasertib = compound: Cc1cc(Nc2cc(N3CCN(C)CC3)nc(Sc3ccc(NC(=O)C4CC4)cc3)n2)n[nH]1 [tozasertib]
Procedure, shortened: as §1

doramapimod = compound: Cc1ccc(-n2nc(C(C)(C)C)cc2NC(=O)Nc2ccc(OCCN3CCOCC3)c3ccccc23)cc1 [doramapimod]
Procedure, shortened: as §1

bafetinib = compound: Cc1ccc(NC(=O)c2ccc(CN3CC[C@H](N(C)C)C3)c(C(F)(F)F)c2)cc1Nc1nccc(-c2cncnc2)n1 [bafetinib]
Procedure, shortened: as §1

[6] = compound: Cc1cccc(CC(=O)N2CCc3c2ccc(-c2cn(C)c4ncnc(N)c24)c3F)n1
Procedure, shortened: as §1

Measured: log2 fold change

HTATIP2 isoform 3 (UniProt Q9BUP3)
inactive: alvocidib 0.031 | Tubastatin A -0.104 | [1] -0.025 | defactinib 0.019 | [2] -0.041 | encorafenib 0.007 | [3] 0.015 | alisertib -0.015 | [4] -0.015 | gefitinib 0.001 | lapatinib -0.017 | pictilisib 0.008 | crizotinib 0.005 | [5] 0.022 | duvelisib -0.007 | gandotinib -0.068 | tozasertib -0.003 | doramapimod 0.017 | bafetinib -0.042 | [6] -0.036

HYPK (UniProt Q9NX55)
inactive: alvocidib -0.001 | Tubastatin A 0.063 | [1] 0.02 | defactinib 0.036 | [2] 0.074 | encorafenib -0.008 | [3] -0.07 | alisertib -0.089 | [4] 0.004 | gefitinib -0.093 | lapatinib -0.024 | pictilisib -0.081 | crizotinib 0.065 | [5] -0.006 | duvelisib 0.03 | gandotinib 0.001 | tozasertib 0.003 | doramapimod -0.059 | bafetinib 0.02 | [6] -0.016

INPP5K (UniProt Q9BT40)
inactive: alvocidib -0.018 | Tubastatin A -0.071 | [1] 0.044 | defactinib -0.217 | [2] -0.074 | encorafenib -0.049 | [3] -0.088 | alisertib 0.175 | [4] 0.009 | gefitinib 0.017 | lapatinib 0.027 | pictilisib 0.004 | crizotinib -0.04 | [5] -0.082 | duvelisib 0.032 | gandotinib 0.033 | tozasertib 0 | doramapimod 0.076 | bafetinib -0.108 | [6] 0.149

ILF3 isoform 7 (UniProt Q12906)
inactive: alvocidib -0.012 | Tubastatin A 0.038 | [1] -0.013 | defactinib -0.012 | [2] 0.008 | encorafenib 0.02 | [3] -0.06 | alisertib 0.002 | [4] 0.003 | gefitinib 0.024 | lapatinib 0.002 | pictilisib 0.002 | crizotinib 0.019 | [5] -0.03 | duvelisib 0.028 | gandotinib 0.02 | tozasertib 0.007 | doramapimod -0.011 | bafetinib 0.003 | [6] 0.019

ILKAP (UniProt Q9H0C8)
inactive: alvocidib 0.056 | Tubastatin A -0.067 | [1] 0 | defactinib 0.03 | [2] -0.028 | encorafenib -0.002 | [3] 0.017 | alisertib 0.067 | [4] -0.006 | gefitinib 0.005 | lapatinib 0.04 | pictilisib 0.049 | crizotinib 0.026 | [5] 0.022 | duvelisib 0.007 | gandotinib -0.052 | tozasertib 0.031 | doramapimod 0.029 | bafetinib 0.001 | [6] -0.021

INTS11 (UniProt Q5TA45)
inactive: alvocidib 0.026 | Tubastatin A -0.019 | [1] 0.036 | defactinib 0.043 | [2] -0.042 | encorafenib -0.02 | [3] 0.019 | alisertib -0.013 | [4] 0.024 | gefitinib 0.036 | lapatinib -0.028 | pictilisib -0.016 | crizotinib 0.007 | [5] 0.02 | duvelisib -0.042 | gandotinib -0.057 | tozasertib 0.009 | doramapimod -0.011 | bafetinib -0.066 | [6] 0.027

IL18R1 (UniProt Q13478)
inactive: alvocidib -0.148 | Tubastatin A 0.008 | [1] -0.106 | defactinib -0.322 | [2] 0.056 | encorafenib 0.116 | [3] 0.142 | alisertib -0.098 | [4] -0.014 | gefitinib -0.039 | lapatinib -0.112 | pictilisib 0.207 | crizotinib -0.076 | [5] -0.116 | duvelisib -0.049 | gandotinib 0.092 | tozasertib 0.063 | doramapimod -0.111 | bafetinib -0.031 | [6] 0.045

IMMP2L (UniProt Q96T52)
inactive: alvocidib -0.045 | Tubastatin A 0.077 | [1] -0.107 | defactinib -0.007 | [2] 0.068 | encorafenib 0.029 | [3] 0.155 | alisertib 0.039 | [4] -0.003 | gefitinib 0.053 | lapatinib 0.017 | pictilisib -0.098 | crizotinib -0.01 | [5] -0.052 | duvelisib -0.036 | gandotinib 0.003 | tozasertib -0.052 | doramapimod -0.027 | bafetinib -0.041 | [6] 0.081

ILVBL (UniProt A1L0T0)
inactive: alvocidib -0.031 | Tubastatin A 0.087 | [1] -0.036 | defactinib -0.007 | [2] 0.127 | encorafenib 0.008 | [3] 0.011 | alisertib -0.025 | [4] 0.015 | gefitinib -0.047 | lapatinib 0.021 | pictilisib -0.036 | crizotinib -0.024 | [5] -0.07 | duvelisib 0.035 | gandotinib 0.041 | tozasertib 0.005 | doramapimod 0.012 | bafetinib 0.02 | [6] 0.032

HSPE1 (UniProt P61604)
inactive: alvocidib 0.052 | Tubastatin A 0.068 | [1] -0.019 | defactinib 0.037 | [2] 0.02 | encorafenib 0 | [3] -0.031 | alisertib 0.016 | [4] 0.016 | gefitinib -0.083 | lapatinib 0.036 | pictilisib 0.034 | crizotinib 0.026 | [5] 0.038 | duvelisib 0.036 | gandotinib 0.003 | tozasertib 0.063 | doramapimod 0.003 | bafetinib 0.015 | [6] 0.004

IK (UniProt Q13123)
inactive: alvocidib -0.016 | Tubastatin A -0.108 | [1] 0.017 | defactinib 0.017 | [2] 0.02 | encorafenib 0.04 | [3] -0.047 | alisertib 0.013 | [4] 0.015 | gefitinib 0.007 | lapatinib -0.038 | pictilisib 0.008 | crizotinib -0.005 | [5] -0.03 | duvelisib -0.05 | gandotinib 0.016 | tozasertib 0.041 | doramapimod -0.006 | bafetinib -0.026 | [6] 0.011

INTS12 (UniProt Q96CB8)
inactive: alvocidib 0.026 | Tubastatin A -0.048 | [1] 0.096 | defactinib 0.028 | [2] 0.009 | encorafenib 0.032 | [3] -0.1 | alisertib -0.025 | [4] 0.069 | gefitinib -0.025 | lapatinib -0.084 | pictilisib 0.043 | crizotinib 0 | [5] 0.015 | duvelisib -0.062 | gandotinib -0.018 | tozasertib 0.013 | doramapimod 0.051 | bafetinib -0.16 | [6] -0.024

HSPBP1 (UniProt Q9NZL4)
inactive: alvocidib -0.005 | Tubastatin A 0 | [1] -0.003 | defactinib -0.003 | [2] 0.012 | encorafenib 0.004 | [3] -0.019 | alisertib -0.009 | [4] 0.004 | gefitinib 0.007 | lapatinib -0.029 | pictilisib 0.017 | crizotinib -0.015 | [5] -0.009 | duvelisib -0.008 | gandotinib 0.027 | tozasertib -0.021 | doramapimod -0.003 | bafetinib -0.03 | [6] 0.004

HSPH1 (UniProt Q92598)
inactive: alvocidib -0.007 | Tubastatin A -0.017 | [1] -0.01 | defactinib 0 | [2] -0.037 | encorafenib -0.017 | [3] 0.071 | alisertib -0.013 | [4] 0.006 | gefitinib -0.003 | lapatinib 0.017 | pictilisib 0.008 | crizotinib -0.008 | [5] -0.001 | duvelisib 0.011 | gandotinib -0.039 | tozasertib 0 | doramapimod 0.008 | bafetinib 0.015 | [6] 0.019

IKBIP isoform 4 (UniProt Q70UQ0)
inactive: alvocidib -0.006 | Tubastatin A 0.024 | [1] -0.039 | defactinib -0.013 | [2] 0.016 | encorafenib -0.024 | [3] -0.032 | alisertib 0 | [4] -0.007 | gefitinib -0.027 | lapatinib -0.005 | pictilisib -0.049 | crizotinib 0.004 | [5] -0.024 | duvelisib -0.004 | gandotinib 0.024 | tozasertib 0.018 | doramapimod -0.027 | bafetinib -0.027 | [6] 0.026

ICAM1 (UniProt P05362)
inactive: alvocidib -0.044 | Tubastatin A 0.034 | [1] -0.003 | defactinib -0.019 | [2] 0.06 | encorafenib -0.014 | [3] -0.015 | alisertib 0.032 | [4] -0.007 | gefitinib 0.002 | lapatinib -0.02 | pictilisib -0.003 | crizotinib 0.044 | [5] -0.075 | duvelisib 0.015 | gandotinib 0.045 | tozasertib -0.019 | doramapimod -0.075 | bafetinib -0.049 | [6] 0.016
